{
  "source": "paper PMC7205606",
  "about": "“Characterization of a toxin-antitoxin system in Mycobacterium tuberculosis suggests neutralization by phosphorylation as the antitoxicity mechanism” (Communications Biology, 2020)",
  "biological_target": "T1, TakA with C-terminal Myc-tag and C-terminal His-tag (TakA-Myc-His) (Mycobacterium tuberculosis H37Rv) (UniProt P96357)",
  "T1 sequence": "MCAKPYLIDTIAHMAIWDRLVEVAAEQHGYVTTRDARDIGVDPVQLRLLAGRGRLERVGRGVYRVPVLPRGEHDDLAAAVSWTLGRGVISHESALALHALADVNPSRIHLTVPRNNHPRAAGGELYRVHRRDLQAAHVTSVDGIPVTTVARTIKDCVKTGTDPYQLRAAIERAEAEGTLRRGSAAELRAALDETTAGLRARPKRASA",
  "test": "co-IP",
  "note": "These are yes or no findings as the source states them, for the method shown. In cells and extracts the contact can be indirect. Some binding calls cover weakened binding; strength is not graded here. Sequences can lack the tags named with a protein.",
  "data": [
    {"substance": "TglT with a C-terminal FLAG-tag (TglT-FLAG) (from UniProt P96356 1-293)", "values": [
      {"measurement": "binding", "result": "binds"}
    ]}
  ]
}
